# Test results from the supplement of paper PMC10849652.
# The chains behind the UniProt entries cited, without tags or fusion partners. Where a name states a change or a piece, a line headed by the entry shows the natural chain unless it says otherwise.
# UniProt O43665: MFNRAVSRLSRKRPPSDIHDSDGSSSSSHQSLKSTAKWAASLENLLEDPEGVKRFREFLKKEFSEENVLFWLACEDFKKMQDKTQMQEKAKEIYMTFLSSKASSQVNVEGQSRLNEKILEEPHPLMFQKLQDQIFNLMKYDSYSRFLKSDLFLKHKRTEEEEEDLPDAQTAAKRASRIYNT
# UniProt Q6NUK4: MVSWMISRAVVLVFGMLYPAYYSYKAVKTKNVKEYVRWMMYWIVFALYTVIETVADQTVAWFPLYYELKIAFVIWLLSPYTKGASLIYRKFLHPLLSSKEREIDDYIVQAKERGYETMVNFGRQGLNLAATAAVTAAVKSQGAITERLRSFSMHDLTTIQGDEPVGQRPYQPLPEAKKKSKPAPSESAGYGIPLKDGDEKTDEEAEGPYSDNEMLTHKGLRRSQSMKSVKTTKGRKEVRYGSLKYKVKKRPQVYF
# UniProt Q9Y256: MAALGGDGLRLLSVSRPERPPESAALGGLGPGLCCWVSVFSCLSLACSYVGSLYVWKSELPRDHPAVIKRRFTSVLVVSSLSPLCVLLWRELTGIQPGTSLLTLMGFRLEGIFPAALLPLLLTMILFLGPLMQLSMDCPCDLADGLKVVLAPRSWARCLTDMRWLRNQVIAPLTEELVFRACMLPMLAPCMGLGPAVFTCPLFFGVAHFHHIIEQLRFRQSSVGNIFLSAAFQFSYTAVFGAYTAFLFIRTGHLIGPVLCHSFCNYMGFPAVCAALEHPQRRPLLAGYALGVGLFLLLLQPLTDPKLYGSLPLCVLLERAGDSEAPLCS
# UniProt Q8TC12: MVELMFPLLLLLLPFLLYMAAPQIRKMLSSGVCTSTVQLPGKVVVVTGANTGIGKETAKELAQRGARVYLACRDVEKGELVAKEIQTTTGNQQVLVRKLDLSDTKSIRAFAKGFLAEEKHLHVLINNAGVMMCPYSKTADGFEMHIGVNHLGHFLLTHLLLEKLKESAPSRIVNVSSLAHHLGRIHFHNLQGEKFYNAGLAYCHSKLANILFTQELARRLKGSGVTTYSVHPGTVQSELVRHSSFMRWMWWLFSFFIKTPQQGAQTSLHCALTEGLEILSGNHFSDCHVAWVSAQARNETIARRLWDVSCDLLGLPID
# UniProt Q96GF1: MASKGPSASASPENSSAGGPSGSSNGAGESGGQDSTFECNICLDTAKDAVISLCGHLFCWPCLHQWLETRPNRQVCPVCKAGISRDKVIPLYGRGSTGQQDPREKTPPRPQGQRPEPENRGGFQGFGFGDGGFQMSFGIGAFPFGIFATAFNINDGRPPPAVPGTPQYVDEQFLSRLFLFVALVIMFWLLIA
# UniProt Q15293: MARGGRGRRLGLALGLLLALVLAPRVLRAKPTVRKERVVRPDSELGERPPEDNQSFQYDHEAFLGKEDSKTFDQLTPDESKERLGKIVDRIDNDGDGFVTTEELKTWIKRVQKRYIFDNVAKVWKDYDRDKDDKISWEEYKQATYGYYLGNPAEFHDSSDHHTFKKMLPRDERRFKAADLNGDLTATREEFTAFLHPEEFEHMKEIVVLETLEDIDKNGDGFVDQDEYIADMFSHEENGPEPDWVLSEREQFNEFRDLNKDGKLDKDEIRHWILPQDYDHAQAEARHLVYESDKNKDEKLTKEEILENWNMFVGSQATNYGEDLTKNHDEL
# UniProt Q13546: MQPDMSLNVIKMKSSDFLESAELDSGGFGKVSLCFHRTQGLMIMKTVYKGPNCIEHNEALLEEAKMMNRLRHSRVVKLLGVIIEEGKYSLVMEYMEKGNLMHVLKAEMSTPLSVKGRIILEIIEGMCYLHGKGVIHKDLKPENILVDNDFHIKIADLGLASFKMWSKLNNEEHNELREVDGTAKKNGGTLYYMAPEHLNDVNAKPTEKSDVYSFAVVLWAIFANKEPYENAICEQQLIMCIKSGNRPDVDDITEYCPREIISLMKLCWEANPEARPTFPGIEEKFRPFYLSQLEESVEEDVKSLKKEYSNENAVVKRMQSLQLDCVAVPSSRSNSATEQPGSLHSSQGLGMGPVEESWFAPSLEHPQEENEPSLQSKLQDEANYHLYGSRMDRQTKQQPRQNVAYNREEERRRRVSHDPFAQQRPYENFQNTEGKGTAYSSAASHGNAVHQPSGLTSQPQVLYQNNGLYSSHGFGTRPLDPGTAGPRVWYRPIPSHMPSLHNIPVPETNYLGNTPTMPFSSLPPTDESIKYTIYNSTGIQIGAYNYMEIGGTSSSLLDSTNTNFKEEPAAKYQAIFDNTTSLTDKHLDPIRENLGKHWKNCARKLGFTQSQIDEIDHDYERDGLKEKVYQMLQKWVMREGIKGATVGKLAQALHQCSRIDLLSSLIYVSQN
# UniProt Q96DB5: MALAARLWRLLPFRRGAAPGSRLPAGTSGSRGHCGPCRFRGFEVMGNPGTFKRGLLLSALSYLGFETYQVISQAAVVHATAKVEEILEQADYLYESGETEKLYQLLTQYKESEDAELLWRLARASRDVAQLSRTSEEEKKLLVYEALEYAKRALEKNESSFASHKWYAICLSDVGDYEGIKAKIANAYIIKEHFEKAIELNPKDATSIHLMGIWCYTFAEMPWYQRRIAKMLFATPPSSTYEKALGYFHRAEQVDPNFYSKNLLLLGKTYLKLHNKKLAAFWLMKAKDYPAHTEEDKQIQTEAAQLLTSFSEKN
# UniProt Q8NBN7: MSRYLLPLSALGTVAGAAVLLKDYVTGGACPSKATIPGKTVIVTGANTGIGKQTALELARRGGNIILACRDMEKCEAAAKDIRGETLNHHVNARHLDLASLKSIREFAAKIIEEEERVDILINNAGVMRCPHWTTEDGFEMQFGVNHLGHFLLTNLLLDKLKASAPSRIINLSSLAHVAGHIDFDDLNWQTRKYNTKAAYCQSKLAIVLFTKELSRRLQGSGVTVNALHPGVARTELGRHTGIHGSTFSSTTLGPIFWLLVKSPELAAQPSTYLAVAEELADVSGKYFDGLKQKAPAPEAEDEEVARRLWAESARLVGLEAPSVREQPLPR
# UniProt A6NED2: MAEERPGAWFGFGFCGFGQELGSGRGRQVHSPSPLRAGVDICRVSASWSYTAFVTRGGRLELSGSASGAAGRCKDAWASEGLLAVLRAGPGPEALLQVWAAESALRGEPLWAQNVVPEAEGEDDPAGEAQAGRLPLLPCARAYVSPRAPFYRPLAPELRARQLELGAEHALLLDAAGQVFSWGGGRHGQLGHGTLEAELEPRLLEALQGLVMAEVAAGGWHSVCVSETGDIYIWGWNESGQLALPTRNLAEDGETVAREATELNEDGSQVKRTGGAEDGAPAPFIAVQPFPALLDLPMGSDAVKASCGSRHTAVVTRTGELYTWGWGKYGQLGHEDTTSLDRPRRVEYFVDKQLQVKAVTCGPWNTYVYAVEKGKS
# UniProt Q9Y2P8: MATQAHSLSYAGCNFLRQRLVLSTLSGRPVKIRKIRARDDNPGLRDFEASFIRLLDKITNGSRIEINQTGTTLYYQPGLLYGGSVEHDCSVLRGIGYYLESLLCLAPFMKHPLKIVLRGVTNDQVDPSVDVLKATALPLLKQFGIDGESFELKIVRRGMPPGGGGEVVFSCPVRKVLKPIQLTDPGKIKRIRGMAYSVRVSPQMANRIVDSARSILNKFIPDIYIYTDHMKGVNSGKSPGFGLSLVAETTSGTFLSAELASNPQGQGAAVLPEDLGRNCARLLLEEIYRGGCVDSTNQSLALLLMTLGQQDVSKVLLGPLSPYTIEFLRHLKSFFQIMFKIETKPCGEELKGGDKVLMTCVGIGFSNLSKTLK
# UniProt Q9H0Z9: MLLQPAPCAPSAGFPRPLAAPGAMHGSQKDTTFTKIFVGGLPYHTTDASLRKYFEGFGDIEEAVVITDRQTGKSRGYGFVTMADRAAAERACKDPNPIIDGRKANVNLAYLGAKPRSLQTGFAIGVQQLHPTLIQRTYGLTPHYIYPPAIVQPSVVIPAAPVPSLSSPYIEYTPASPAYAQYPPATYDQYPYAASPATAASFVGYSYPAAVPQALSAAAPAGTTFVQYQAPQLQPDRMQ
# UniProt Q9BQY4: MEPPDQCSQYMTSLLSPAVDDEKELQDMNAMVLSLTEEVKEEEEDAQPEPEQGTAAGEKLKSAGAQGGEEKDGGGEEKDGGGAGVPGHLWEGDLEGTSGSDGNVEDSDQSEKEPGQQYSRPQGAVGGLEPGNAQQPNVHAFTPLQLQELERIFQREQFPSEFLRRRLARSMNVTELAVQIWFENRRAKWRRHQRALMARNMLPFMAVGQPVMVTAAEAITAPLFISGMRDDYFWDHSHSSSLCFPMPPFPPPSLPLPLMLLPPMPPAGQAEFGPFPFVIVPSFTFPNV
# UniProt Q8ND24: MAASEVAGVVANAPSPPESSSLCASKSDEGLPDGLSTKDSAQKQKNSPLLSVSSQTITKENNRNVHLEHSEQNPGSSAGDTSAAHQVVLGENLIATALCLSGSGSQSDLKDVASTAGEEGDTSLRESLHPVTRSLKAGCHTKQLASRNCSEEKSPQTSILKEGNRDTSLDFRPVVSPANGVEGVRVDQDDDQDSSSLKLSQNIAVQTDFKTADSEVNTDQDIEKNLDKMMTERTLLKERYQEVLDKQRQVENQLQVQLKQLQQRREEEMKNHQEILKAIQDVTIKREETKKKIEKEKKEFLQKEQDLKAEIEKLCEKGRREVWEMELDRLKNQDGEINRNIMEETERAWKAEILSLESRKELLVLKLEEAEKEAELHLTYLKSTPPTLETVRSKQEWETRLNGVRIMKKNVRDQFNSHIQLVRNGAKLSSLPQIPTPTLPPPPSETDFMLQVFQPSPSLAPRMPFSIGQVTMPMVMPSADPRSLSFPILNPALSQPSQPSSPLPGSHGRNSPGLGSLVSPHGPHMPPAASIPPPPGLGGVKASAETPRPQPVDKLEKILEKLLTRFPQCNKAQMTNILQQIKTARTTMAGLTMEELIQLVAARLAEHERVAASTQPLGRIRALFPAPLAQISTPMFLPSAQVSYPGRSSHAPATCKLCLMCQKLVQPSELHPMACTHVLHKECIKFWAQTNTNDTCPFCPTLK
# UniProt Q9P258, whole entry, looked up: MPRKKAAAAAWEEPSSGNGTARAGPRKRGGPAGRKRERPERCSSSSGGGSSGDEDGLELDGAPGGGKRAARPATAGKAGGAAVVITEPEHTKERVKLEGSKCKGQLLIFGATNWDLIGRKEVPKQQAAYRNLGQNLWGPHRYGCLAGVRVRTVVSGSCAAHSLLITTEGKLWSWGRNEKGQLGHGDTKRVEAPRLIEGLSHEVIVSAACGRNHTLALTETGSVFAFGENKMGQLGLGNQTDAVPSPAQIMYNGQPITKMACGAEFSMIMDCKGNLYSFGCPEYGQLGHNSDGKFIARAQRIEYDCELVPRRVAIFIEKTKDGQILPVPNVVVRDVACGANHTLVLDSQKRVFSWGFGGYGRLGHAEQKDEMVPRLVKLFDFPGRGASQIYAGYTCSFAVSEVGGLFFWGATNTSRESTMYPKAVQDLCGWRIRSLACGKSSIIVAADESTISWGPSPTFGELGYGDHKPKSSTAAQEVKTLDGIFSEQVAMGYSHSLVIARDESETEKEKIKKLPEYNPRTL
# UniProt P35241, whole entry, looked up: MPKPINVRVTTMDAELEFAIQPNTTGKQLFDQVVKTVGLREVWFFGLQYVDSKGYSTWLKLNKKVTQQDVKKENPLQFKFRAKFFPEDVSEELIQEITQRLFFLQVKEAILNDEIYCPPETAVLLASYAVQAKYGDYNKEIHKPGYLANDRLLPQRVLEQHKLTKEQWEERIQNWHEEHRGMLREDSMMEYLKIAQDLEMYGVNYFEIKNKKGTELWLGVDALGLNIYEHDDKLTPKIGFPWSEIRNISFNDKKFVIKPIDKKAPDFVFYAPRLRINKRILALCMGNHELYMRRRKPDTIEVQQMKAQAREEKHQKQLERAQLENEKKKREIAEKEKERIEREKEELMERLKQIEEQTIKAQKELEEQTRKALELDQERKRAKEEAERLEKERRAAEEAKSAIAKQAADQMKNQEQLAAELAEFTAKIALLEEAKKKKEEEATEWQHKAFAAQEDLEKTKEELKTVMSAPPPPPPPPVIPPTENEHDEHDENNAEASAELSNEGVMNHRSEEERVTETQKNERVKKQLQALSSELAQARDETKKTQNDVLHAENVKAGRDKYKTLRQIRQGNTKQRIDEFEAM
# UniProt Q96PM5: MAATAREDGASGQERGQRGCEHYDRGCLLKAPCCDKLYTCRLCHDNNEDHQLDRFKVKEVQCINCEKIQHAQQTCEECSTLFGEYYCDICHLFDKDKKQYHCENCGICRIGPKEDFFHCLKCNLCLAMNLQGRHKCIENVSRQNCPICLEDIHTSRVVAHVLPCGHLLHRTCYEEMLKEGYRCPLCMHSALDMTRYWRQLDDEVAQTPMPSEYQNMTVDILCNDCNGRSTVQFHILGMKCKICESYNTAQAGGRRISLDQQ
# UniProt O00287: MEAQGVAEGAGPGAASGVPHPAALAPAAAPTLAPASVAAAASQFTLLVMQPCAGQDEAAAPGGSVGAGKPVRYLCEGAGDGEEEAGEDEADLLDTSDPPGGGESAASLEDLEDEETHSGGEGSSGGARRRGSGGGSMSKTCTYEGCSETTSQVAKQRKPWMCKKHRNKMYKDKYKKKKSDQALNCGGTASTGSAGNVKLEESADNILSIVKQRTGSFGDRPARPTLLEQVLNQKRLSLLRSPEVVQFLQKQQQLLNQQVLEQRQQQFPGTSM
# The other results are listed elsewhere or left out.
# How the values were obtained:
# Assay in all cases: log2 fold change, soluble protein after heating vs DMSO (PISA); higher = thermal stabilisation; K562 cells, 10 uM, 30 min; active = over 0.2 and 3.5 SD of the protein, either way, in both replicates (recomputed)
# [1] = compound: C1=CC=C(C=C1)[C@H](COC2=CC3=C(C=C2)NC(=O)N3)NC(=O)C4=CC=CN(C4=O)CC5=CC(=C(C=C5)F)F
# Outline: (§1)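 Soluble protein was quantified by TMTpro 16plex LC-MS/MS after channel sums were equalised. It was obtained as the supernatant after 21,000xg for 90 min from pooled aliquots of K562 cells (2×10^6 cells/mL, 10 μM compound, 30 min) heated for 3 min across 48°C-58°C and extracted in PBS with 0.5% NP-40 at 4°C. Thermal stability values are relative to control samples and come from duplicates. They are given as log2 fold changes.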
# [2] = compound: CC1=C(SC2=C1C(=N[C@H](C3=NN=C(N32)C)CC(=O)N)C4=CC=C(C=C4)Cl)C
# Outline: as §1
# [3] = compound: CC1=C2C(=CC=C1)N=C(N(C2=O)C3=CC=CC=C3C)CN4C=NC5=C(N=CN=C54)N
# Outline: as §1
# [4] = compound: Cc1sc2c(c1C)C(c1ccc(Cl)cc1)=N[C@@H](CC(=O)OC(C)(C)C)c1nnc(C)n1-2
# Outline: as §1
# [5] = compound: c1ccc([C@@H]2C[C@H]2NC2CCNCC2)cc1
# Outline: as §1
Target,log2 fold change [1],log2 fold change [2],log2 fold change [3],log2 fold change [4],log2 fold change [5]
RCSD1 (UniProt Q6JBY9),inactive: 0.031,inactive: -0.028,inactive: 0.024,inactive: 0.042,inactive: 0.066
RCOR3 isoform 3 (UniProt Q9P2K3),inactive: -0.139,inactive: 0.087,inactive: 0.111,inactive: -0.06,active: 1.27
RNASEH2C (UniProt Q8TDP1),inactive: -0.015,inactive: 0.055,inactive: 0.056,inactive: -0.061,inactive: -0.046
RGS10 (UniProt O43665),inactive: 0.014,inactive: 0.042,inactive: -0.035,inactive: -0.022,inactive: -0.058
RNF114 (UniProt Q9Y508),inactive: -0.039,inactive: 0.025,inactive: 0.039,inactive: -0.005,inactive: 0.012
REEP3 (UniProt Q6NUK4),inactive: -0.052,inactive: 0.015,inactive: 0.041,inactive: 0.006,inactive: 0.043
RFFL (UniProt Q8WZ73),inactive: -0.05,inactive: -0.053,inactive: -0.209,inactive: 0.086,inactive: 0.01
RBM8A (UniProt Q9Y5S9),inactive: -0.02,inactive: -0.005,inactive: -0.062,inactive: 0.029,inactive: 0.045
RCE1 (UniProt Q9Y256),inactive: -0.007,inactive: 0.086,inactive: 0.059,inactive: -0.092,inactive: 0.076
RNF181 (UniProt Q9P0P0),inactive: -0.012,inactive: 0.041,inactive: 0.026,inactive: -0.044,inactive: -0.033
RHOA (UniProt P61586),inactive: 0.01,inactive: -0.058,inactive: -0.095,inactive: -0.041,inactive: 0.021
RDH11 (UniProt Q8TC12),inactive: 0.258,inactive: 0.06,inactive: 0.266,inactive: 0.115,inactive: -0.058
RNF185 (UniProt Q96GF1),inactive: -0.157,inactive: 0,inactive: 0.006,inactive: 0.104,inactive: -0.168
RCN1 (UniProt Q15293),inactive: 0.02,inactive: 0.024,inactive: 0.04,inactive: -0.021,inactive: 0.007
RIPK1 (UniProt Q13546),inactive: -0.058,inactive: -0.134,inactive: 0.033,inactive: -0.048,inactive: -0.049
RCC1 isoform 2 (UniProt P18754),inactive: -0.175,inactive: 0.096,inactive: 0.176,inactive: 0.012,inactive: -0.058
RBP4 (UniProt P02753),inactive: -0.118,inactive: -0.125,inactive: 0.029,inactive: 0.152,inactive: 0.187
RNASE4 (UniProt P34096),inactive: -0.093,inactive: -0.203,inactive: 0.1,inactive: 0.063,inactive: -0.071
RMDN1 (UniProt Q96DB5),inactive: 0.005,inactive: 0.069,inactive: 0.054,inactive: -0.06,inactive: -0.022
RHOB (UniProt P62745),inactive: -0.057,inactive: -0.201,inactive: -0.057,inactive: -0.092,inactive: 0.032
RNF2 (UniProt Q99496),inactive: 0.067,inactive: 0.014,inactive: 0.153,inactive: 0.064,inactive: 0.085
RELA (UniProt Q04206),inactive: -0.013,inactive: 0.056,inactive: 0.03,inactive: 0.031,inactive: 0.008
RDH13 (UniProt Q8NBN7),inactive: -0.013,inactive: 0.052,inactive: 0.032,inactive: 0.013,inactive: -0.062
RNF13 (UniProt O43567),inactive: -0.003,inactive: -0.18,inactive: 0,inactive: -0.109,inactive: -0.043
RER1 (UniProt O15258),inactive: 0.005,inactive: -0.005,inactive: -0.07,inactive: -0.045,inactive: 0.009
RNF167 (UniProt Q9H6Y7),inactive: -0.025,inactive: -0.011,inactive: 0.002,inactive: -0.017,inactive: 0.001
RGS14 (UniProt O43566),inactive: -0.005,inactive: 0.043,inactive: 0.391,inactive: 0.171,inactive: 0.105

Target,log2 fold change [1],log2 fold change [2],log2 fold change [3],log2 fold change [4],log2 fold change [5]
RCCD1 (UniProt A6NED2),inactive: -0.064,inactive: -0.007,inactive: 0.021,inactive: -0.012,inactive: 0.005
RMND1 (UniProt Q9NWS8),inactive: 0.035,inactive: 0.073,inactive: 0.101,inactive: -0.015,inactive: -0.008
REEP4 (UniProt Q9H6H4),inactive: -0.004,inactive: -0.034,inactive: -0.023,inactive: 0.081,inactive: 0.003
RCL1 (UniProt Q9Y2P8),inactive: 0.055,inactive: -0.181,inactive: -0.222,inactive: 0.283,inactive: 0
RCN3 (UniProt Q96D15),inactive: 0.016,inactive: 0.032,inactive: -0.061,inactive: -0.01,inactive: 0.023
RNF146 (UniProt Q9NTX7),inactive: -0.113,inactive: -0.053,inactive: 0.028,inactive: -0.068,inactive: -0.003
RBM38 (UniProt Q9H0Z9),inactive: 0.051,inactive: 0.139,inactive: -0.072,inactive: -0.058,inactive: -0.07
RHOXF2 (UniProt Q9BQY4),inactive: 0.004,inactive: -0.031,inactive: 0.024,inactive: 0.012,inactive: 0.057
RELCH isoform 2 (UniProt Q9P260),inactive: -0.084,inactive: 0.07,inactive: -0.14,inactive: 0.091,inactive: -0.005
RNF214 (UniProt Q8ND24),inactive: -0.002,inactive: 0.006,inactive: 0.136,inactive: -0.016,inactive: 0.017
RELN (UniProt P78509),inactive: 0.024,inactive: -0.006,inactive: 0.022,inactive: 0.016,inactive: -0.025
RCC2 (UniProt Q9P258),inactive: -0.01,inactive: 0.047,inactive: 0.095,inactive: -0.013,inactive: -0.015
RFC2 (UniProt P35250),inactive: -0.019,inactive: 0.039,inactive: 0.005,inactive: -0.005,inactive: -0.015
RFK (UniProt Q969G6),inactive: 0.024,inactive: 0.028,inactive: -0.018,inactive: -0.017,inactive: -0.002
RHAG (UniProt Q02094),inactive: -0.063,inactive: 0.035,inactive: -0.061,inactive: -0.148,inactive: 0.061
RDX (UniProt P35241),inactive: -0.016,inactive: -0.003,inactive: -0.023,inactive: 0.002,inactive: 0.017
REXO2 (UniProt Q9Y3B8),inactive: 0.012,inactive: 0.037,inactive: 0.023,inactive: -0.005,inactive: -0.008
RING1 (UniProt Q06587),inactive: -0.037,inactive: -0.012,inactive: 0.089,inactive: -0.017,inactive: -0.081
RIOK1 (UniProt Q9BRS2),inactive: 0.015,inactive: -0.044,inactive: -0.018,inactive: 0.032,inactive: 0.024
REEP5 (UniProt Q00765),inactive: 0.027,inactive: 0.048,inactive: 0.061,inactive: -0.023,inactive: -0.001
RHOT2 (UniProt Q8IXI1),inactive: 0.025,inactive: 0.032,inactive: 0.093,inactive: -0.009,inactive: -0.081
RCHY1 (UniProt Q96PM5),inactive: 0.012,inactive: 0.022,inactive: 0.034,inactive: 0.035,inactive: 0.007
RDH14 (UniProt Q9HBH5),inactive: 0.128,inactive: 0.139,inactive: 0.038,inactive: 0.01,inactive: -0.037
RNF113A (UniProt O15541),inactive: -0.009,inactive: 0.026,inactive: 0.021,inactive: -0.002,inactive: 0.048
RHOT1 isoform 3 (UniProt Q8IXI2),inactive: 0.003,inactive: 0.033,inactive: 0.046,inactive: 0.022,inactive: 0.008
RFXAP (UniProt O00287),inactive: -0.008,inactive: 0.008,inactive: -0.013,inactive: -0.038,inactive: 0.003

# A second format for some results above:
Target	log2 fold change [1]	log2 fold change [2]	log2 fold change [3]	log2 fold change [4]	log2 fold change [5]
RNF2 (UniProt Q99496)	inactive: 0.067	inactive: 0.014	inactive: 0.153	inactive: 0.064	inactive: 0.085
RELA (UniProt Q04206)	inactive: -0.013	inactive: 0.056	inactive: 0.03	inactive: 0.031	inactive: 0.008
RDH13 (UniProt Q8NBN7)	inactive: -0.013	inactive: 0.052	inactive: 0.032	inactive: 0.013	inactive: -0.062
